# Test results as given in US9180077B2, “Green tea extracts of improved bioavailability” (Nestec S.A., priority 2009, dated 2015).
# Assay: Stability study of green tea catechins: incubation in Na-Pi buffer pH 7.4 at 37° C., HPLC
# Type: physicochemical
# Details: GTE 0.1%, pH 7.4, 37° C
# Procedure: Samples were prepared according to the following method. Briefly, each sample was treated with acetic acid (30% final concentration) for 30 min and then added to an aqueous solution containing 10% acetonitrile, 0.5 mg/mL EDTA and 0.5 mg/mL ascorbic acid. The mix was then centrifuged for 30 min at 14′000×g and the supernatant analysed by HPLC. Following this protocol allows the complete recovery of all catechins.
# Green tea catechins were determined by reverse phase HPLC using an analytical method based on the ISO FDIS 14502-2 method. The HPLC system used was a 1100 series Hewlett-Packard (Geneva, Switzerland) model equipped with an ultraviolet-visible photodiode array and a fluorimetric detector. Catechins were detected by UV absorption at 280.4 nm except for catechins and epicatechin that were detected by fluorescence (excitation: 280 nm; emission: 310 nm). Samples (10 μl) were separated on a Zorbax RX—C18 column (4.6 mm internal diameter×250 mm length, Agilent technologies). Flow rate was 1.0 mL/min.
# Sample concentration of green tea catechins (C, EC, EgC, EgCg, ECg) were calculated based on the corresponding calibration curve and reported as % of the initial value (sample at t0). Since caffeine, endogenous to green tea samples, is stable under the selected assay conditions, it was used as internal standard for all calculations. […]
smiles,measurement,setting,value
"O=C1O[C@H]([C@@H](O)CO)C(O)=C1O [vitamin C, ascorbic acid]",vitamin C concentration at which significant effects on catechin retention were visible,selected concentrations,0.5 mM
same,vitamin C concentration for maximum protection,at 2 h,≥ 1 mM
